Some of the results follow.
What follows are targets tested with C1=CC(=CC=C1C2=NC3=C(N2)C=C(C=C3)C(=O)N)OC4=CC=C(C=C4)Cl (assay: log2 fold change, soluble protein after heating vs DMSO (PISA); higher = thermal stabilisation; K562 lysate, 10 uM; active = over 0.2 and 3.5 SD of the protein, either way, in both replicates (recomputed)).
Summary of the method: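 To prepare the extract, K562 pellets were dounce-homogenised in PBS pH 7.4 with 1 mM MgCl2, giving crude material at 1 mg/mL protein. This was treated with 10 μM compound for 30 min, then heated in aliquots for 3 min over 48°C-58°C before pooling and addition of NP-40 to 0.5% at 4°C. Centrifugation at 21,000xg for 90 min left soluble protein in the supernatant, which TMTpro 16plex LC-MS/MS quantified with equalised channel sums. Results are log-two fold changes in thermal stability compared with solvent controls, from duplicates.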

Sequences of proteins named here, by UniProt entry; tags and fusion partners are left off. A change or cut given only in a name is not applied to a line headed by its entry.
UniProt O00161: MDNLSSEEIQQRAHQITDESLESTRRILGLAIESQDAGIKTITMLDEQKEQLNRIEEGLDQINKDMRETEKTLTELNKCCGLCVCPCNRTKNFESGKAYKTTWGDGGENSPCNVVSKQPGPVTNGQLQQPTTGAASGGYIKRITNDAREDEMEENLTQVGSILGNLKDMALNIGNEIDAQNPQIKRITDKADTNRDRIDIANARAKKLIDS
UniProt O94964: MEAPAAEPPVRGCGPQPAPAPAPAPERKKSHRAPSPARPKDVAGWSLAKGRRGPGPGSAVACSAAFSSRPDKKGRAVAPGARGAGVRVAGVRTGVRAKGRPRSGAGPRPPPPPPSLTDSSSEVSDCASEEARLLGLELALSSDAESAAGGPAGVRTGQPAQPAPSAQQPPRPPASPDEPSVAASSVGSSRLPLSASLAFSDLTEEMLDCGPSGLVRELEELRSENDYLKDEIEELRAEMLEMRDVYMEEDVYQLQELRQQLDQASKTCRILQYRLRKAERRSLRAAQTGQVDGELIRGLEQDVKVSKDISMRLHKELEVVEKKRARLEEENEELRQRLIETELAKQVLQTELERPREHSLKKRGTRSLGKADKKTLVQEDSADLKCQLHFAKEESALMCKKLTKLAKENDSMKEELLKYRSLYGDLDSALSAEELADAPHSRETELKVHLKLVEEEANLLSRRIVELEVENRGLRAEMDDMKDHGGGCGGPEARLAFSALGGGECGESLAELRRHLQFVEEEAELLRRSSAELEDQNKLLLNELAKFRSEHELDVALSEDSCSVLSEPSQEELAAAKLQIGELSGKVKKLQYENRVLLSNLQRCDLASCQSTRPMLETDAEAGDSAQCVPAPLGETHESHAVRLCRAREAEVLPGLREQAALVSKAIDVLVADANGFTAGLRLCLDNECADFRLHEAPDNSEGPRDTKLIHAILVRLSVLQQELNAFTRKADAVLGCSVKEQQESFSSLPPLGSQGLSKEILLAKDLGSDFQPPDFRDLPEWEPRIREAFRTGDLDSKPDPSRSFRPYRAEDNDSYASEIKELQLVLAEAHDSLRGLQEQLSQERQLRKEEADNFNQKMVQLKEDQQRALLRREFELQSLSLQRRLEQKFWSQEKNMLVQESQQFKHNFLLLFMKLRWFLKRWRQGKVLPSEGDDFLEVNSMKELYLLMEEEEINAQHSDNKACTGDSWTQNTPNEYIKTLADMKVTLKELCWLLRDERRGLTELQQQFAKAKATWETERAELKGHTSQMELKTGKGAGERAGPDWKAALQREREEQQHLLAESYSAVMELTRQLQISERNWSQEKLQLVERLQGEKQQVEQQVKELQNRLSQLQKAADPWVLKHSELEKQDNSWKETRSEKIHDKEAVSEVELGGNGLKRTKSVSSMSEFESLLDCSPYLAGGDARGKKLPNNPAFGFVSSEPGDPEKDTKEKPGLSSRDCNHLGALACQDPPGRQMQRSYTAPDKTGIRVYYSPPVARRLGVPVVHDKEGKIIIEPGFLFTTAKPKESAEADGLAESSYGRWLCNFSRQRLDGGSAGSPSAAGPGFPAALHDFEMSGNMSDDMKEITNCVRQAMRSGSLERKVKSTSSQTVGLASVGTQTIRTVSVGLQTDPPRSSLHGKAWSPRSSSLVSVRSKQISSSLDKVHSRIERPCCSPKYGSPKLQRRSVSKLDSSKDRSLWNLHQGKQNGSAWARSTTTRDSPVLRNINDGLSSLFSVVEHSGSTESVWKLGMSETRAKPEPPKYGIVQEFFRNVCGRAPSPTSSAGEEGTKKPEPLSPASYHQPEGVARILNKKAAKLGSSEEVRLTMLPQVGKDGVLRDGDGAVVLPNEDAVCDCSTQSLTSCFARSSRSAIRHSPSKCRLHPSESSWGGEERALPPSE
UniProt Q13425: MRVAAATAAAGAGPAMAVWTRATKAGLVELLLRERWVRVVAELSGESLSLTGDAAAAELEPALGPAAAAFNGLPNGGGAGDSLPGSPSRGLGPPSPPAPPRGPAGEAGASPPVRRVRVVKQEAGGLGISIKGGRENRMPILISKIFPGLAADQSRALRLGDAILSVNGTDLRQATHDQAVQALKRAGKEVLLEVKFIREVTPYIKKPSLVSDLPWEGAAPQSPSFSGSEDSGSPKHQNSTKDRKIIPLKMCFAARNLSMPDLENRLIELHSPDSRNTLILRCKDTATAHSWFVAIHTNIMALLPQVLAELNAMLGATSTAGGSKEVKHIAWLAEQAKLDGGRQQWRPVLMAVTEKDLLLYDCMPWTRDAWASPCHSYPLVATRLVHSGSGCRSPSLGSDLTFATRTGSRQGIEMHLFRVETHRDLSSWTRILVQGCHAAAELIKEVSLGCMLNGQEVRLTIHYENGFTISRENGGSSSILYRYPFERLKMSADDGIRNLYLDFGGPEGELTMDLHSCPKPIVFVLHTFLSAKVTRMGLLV
UniProt Q8NDV3: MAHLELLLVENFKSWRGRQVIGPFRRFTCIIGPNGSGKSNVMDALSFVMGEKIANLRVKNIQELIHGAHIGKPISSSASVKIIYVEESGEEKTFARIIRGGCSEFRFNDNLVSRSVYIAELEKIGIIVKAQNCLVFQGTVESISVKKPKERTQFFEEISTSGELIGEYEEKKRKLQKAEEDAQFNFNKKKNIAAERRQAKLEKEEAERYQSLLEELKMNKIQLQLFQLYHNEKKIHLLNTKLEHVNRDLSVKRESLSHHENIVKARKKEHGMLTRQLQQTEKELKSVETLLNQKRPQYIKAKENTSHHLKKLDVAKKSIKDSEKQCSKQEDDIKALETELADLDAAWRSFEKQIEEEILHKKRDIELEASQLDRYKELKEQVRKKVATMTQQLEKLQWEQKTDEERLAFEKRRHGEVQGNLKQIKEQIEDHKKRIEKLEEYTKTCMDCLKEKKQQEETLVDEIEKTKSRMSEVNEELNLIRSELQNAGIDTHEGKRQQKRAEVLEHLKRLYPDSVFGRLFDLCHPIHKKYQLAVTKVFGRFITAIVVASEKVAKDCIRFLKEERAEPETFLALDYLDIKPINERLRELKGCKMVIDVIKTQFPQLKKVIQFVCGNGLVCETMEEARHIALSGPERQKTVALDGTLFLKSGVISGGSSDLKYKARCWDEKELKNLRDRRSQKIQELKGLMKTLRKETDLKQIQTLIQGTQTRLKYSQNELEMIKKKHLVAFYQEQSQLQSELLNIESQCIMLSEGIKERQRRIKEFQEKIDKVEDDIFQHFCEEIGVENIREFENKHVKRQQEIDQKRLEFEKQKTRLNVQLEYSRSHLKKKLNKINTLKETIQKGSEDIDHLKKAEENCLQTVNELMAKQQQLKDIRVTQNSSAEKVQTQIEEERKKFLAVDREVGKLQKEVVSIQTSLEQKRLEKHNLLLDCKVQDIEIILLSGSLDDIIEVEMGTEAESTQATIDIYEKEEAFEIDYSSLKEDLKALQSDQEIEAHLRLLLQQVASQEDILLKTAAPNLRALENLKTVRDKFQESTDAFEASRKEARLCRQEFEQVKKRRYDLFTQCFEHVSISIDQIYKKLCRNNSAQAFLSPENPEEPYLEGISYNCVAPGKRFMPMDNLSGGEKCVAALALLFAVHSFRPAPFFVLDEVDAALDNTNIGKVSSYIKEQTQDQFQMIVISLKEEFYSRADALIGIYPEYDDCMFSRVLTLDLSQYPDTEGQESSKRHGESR
UniProt O75643, whole entry, looked up: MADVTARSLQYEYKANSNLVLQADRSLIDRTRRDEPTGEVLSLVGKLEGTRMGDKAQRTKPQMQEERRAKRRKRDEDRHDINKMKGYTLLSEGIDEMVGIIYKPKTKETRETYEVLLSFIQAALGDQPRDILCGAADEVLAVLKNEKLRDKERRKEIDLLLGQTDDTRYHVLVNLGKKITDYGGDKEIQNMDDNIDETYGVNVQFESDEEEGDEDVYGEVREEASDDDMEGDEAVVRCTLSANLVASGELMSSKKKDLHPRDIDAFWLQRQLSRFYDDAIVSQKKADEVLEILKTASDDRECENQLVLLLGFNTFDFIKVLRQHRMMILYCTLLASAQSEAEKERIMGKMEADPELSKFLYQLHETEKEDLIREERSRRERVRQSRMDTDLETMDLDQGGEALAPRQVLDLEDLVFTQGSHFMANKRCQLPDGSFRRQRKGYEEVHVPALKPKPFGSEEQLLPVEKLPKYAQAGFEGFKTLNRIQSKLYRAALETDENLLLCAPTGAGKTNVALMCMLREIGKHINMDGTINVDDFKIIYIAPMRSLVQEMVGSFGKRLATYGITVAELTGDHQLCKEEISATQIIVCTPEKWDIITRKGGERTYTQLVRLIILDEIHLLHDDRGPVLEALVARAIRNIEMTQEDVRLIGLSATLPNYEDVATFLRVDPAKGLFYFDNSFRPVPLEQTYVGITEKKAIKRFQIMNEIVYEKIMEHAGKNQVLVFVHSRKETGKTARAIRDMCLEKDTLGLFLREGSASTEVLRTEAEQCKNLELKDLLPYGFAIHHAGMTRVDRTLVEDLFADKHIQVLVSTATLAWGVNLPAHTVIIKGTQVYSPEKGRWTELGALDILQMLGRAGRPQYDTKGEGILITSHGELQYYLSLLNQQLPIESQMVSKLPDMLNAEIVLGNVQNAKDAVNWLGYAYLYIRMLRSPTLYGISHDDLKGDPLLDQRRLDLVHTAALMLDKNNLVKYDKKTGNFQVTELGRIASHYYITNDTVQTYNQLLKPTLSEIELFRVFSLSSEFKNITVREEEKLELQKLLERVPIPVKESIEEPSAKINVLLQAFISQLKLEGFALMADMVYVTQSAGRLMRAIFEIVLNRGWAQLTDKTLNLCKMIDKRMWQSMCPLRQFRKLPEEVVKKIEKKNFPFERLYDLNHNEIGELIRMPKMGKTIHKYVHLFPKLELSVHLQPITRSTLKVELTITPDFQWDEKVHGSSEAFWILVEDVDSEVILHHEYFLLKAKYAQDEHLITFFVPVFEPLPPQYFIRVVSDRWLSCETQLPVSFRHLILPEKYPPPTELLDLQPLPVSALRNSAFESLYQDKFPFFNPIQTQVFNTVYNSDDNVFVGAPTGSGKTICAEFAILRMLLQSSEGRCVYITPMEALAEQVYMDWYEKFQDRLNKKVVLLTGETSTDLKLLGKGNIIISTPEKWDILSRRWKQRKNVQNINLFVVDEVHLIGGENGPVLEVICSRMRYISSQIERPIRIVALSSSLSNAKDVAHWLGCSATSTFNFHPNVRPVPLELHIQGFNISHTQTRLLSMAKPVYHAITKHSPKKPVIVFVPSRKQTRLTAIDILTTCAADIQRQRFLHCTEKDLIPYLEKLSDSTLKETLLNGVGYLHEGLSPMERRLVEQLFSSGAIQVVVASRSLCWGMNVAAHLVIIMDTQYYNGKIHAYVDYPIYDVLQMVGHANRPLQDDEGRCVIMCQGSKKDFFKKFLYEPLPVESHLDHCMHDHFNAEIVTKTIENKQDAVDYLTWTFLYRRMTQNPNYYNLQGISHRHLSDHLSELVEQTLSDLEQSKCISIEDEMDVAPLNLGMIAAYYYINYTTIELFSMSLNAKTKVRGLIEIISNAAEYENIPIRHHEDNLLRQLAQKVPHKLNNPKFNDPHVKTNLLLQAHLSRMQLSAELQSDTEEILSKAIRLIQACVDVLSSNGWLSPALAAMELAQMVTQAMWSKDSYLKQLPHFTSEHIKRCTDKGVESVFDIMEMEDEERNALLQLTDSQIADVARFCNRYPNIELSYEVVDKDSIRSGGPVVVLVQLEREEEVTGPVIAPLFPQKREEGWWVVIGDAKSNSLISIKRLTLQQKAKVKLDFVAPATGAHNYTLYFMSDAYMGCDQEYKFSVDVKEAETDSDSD
UniProt P09486: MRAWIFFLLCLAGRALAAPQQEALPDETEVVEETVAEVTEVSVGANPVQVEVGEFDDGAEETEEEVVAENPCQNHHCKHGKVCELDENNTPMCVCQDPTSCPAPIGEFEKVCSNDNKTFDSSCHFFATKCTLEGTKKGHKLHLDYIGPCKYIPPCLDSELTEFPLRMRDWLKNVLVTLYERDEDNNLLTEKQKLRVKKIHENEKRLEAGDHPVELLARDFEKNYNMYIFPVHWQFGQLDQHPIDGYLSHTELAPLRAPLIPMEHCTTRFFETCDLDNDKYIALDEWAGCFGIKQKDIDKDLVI
UniProt Q6IEG0: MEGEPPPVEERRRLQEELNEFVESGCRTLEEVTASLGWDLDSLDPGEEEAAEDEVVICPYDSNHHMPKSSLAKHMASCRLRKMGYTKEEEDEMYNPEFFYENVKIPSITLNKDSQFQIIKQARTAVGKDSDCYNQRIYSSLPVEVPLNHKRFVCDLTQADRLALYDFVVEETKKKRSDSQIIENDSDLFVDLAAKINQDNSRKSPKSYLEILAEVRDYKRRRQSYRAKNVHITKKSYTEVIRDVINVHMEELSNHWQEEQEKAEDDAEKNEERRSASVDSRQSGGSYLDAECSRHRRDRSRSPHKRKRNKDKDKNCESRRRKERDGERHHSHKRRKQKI
UniProt P62316, whole entry, looked up: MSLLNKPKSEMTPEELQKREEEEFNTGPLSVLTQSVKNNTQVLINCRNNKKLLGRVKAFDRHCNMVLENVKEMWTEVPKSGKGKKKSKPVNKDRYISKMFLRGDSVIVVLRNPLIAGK

log2 fold change, inactive:
SNRPG (UniProt P62308) 0.042
SNX27 (UniProt Q96L92) -0.012
SMARCD1 (UniProt Q96GM5) 0.024
SNRNP70 (UniProt P08621) 0.002
SNX2 (UniProt O60749) 0.004
SMARCA4 (UniProt P51532) -0.021
SPAG9 (UniProt O60271) 0.037
SMCHD1 (UniProt A6NHR9) 0.001
SNRPD3 (UniProt P62318) 0.016
SMN1 (UniProt Q16637) 0.042
SNAP23 (UniProt O00161) -0.025
SOGA1 isoform 2 (UniProt O94964) -0.022
SORBS1 isoform 8 (UniProt Q9BX66) 0.066
SNTB2 (UniProt Q13425) -0.041
SMARCAD1 isoform 2 (UniProt Q9H4L7) -0.039
SNX15 (UniProt Q9NRS6) -0.044
SNAPIN (UniProt O95295) 0.031
SPAG7 (UniProt O75391) 0.013
SMC1B isoform 3 (UniProt Q8NDV3) 0.003
SNX3 (UniProt O60493) -0.021
SNRPF (UniProt P62306) 0.081
SNRNP40 (UniProt Q96DI7) -0.03
SNRNP200 (UniProt O75643) -0.009
SPARC (UniProt P09486) 0.171
SNRPC (UniProt P09234) 0.033
SNX17 (UniProt Q15036) 0
SMARCD2 (UniProt Q92925) -0.038
SMARCAL1 (UniProt Q9NZC9) 0.06
SMARCB1 (UniProt Q12824) 0.003
SNRNP48 (UniProt Q6IEG0) -0.035
SNRPC (UniProt Q5TAL2) 0.066
SNX11 (UniProt Q9Y5W9) 0.043
SNCA (UniProt P37840) 0.098
SMU1 (UniProt Q2TAY7) -0.004
SNRPB isoform 3 (UniProt P14678) 0.028
SNRPD2 (UniProt P62316) 0.058
SMARCC2 (UniProt Q8TAQ2) -0.006
SNX6, A0A0A0MRI2 -0.029
SNRPE (UniProt P62304) 0.045

Fetched one by one from the entries so far, 3 records:
log2 fold change, inactive:
SNTB2 (UniProt Q13425) -0.041
SNX3 (UniProt O60493) -0.021
SMARCD2 (UniProt Q92925) -0.038

From the supplement of paper PMC10849652
